Data on 31 targets can be found in the supplement of paper PMC12819154, “High-throughput peptide-centric local stability assay extends protein–ligand identification to membrane proteins, tissues and bacteria” (Nature Structural & Molecular Biology, 2025).

Chains of the proteins cited; added tags and fusions are not shown. Lines headed by an entry give the natural chain unless they say otherwise; changes in a name come on top.
UniProt Q9D7F7: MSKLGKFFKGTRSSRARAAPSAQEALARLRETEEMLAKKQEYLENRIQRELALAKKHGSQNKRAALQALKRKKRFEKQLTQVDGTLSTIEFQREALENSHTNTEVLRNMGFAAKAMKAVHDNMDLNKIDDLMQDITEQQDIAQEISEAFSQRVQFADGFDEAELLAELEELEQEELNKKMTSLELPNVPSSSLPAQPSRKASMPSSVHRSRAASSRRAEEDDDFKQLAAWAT
UniProt Q9D5R3: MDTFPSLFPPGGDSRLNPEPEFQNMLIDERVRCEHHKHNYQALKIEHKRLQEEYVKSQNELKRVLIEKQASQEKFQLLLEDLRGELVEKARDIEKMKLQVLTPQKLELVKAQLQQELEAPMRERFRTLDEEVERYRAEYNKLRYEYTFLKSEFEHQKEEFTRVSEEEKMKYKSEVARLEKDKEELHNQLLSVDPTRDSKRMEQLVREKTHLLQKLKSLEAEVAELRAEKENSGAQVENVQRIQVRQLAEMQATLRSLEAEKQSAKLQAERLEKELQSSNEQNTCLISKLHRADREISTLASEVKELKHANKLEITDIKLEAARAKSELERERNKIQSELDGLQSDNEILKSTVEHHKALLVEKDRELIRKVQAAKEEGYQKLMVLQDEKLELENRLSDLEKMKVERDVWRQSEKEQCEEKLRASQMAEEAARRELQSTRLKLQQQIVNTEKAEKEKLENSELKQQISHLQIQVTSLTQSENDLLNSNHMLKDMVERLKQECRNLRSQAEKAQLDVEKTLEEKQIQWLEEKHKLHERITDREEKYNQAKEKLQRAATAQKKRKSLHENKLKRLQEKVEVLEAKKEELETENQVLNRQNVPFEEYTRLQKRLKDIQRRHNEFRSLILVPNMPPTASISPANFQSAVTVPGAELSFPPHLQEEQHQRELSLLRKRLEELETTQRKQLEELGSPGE
UniProt Q9D708: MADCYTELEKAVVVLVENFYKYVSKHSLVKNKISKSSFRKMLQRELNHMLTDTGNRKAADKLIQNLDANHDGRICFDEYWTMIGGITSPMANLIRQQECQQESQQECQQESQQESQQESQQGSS
UniProt Q9D4H1: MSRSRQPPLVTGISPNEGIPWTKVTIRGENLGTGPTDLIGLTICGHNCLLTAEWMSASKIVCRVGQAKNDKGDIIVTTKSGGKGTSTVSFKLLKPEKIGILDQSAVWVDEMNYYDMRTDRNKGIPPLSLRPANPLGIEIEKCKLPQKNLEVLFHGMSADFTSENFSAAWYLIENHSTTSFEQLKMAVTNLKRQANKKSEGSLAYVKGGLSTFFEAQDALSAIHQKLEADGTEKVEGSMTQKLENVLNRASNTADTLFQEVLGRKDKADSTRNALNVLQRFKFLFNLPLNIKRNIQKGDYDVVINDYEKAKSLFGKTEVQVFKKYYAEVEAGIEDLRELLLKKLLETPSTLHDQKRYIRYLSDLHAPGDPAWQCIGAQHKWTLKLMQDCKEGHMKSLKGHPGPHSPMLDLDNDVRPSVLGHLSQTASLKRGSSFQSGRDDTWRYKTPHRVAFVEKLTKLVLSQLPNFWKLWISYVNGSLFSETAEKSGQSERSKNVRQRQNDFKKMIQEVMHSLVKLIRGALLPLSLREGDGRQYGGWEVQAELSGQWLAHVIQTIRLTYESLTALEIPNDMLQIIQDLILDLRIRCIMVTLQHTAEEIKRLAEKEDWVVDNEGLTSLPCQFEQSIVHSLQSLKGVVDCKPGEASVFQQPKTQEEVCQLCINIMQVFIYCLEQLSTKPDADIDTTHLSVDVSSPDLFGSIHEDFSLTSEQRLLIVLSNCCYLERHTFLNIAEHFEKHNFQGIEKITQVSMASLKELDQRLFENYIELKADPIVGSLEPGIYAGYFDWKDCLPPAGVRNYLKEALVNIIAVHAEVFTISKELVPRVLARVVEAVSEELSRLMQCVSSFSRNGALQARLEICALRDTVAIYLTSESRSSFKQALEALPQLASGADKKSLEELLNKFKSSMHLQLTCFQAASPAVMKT
UniProt Q9D4K7: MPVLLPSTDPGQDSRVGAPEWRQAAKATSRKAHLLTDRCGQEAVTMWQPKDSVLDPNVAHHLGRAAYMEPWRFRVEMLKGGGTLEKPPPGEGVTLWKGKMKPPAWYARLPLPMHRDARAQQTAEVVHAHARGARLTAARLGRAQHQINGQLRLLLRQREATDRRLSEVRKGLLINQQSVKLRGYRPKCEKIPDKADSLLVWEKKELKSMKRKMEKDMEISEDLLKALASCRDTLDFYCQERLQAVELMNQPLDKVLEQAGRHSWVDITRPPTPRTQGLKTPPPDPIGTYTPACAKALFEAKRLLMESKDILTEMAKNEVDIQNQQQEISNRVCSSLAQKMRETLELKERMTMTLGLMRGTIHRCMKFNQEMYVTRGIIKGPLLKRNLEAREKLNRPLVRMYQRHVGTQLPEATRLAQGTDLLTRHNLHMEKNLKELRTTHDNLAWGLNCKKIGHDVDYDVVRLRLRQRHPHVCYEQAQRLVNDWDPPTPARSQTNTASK
UniProt Q9D7I5: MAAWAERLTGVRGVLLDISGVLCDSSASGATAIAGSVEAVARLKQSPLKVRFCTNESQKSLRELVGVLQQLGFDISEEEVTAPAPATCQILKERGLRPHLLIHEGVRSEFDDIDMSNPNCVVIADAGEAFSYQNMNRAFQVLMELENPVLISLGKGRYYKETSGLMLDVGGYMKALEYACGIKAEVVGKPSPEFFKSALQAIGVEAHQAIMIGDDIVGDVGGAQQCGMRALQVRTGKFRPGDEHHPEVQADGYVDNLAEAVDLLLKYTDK
UniProt Q9D6X6: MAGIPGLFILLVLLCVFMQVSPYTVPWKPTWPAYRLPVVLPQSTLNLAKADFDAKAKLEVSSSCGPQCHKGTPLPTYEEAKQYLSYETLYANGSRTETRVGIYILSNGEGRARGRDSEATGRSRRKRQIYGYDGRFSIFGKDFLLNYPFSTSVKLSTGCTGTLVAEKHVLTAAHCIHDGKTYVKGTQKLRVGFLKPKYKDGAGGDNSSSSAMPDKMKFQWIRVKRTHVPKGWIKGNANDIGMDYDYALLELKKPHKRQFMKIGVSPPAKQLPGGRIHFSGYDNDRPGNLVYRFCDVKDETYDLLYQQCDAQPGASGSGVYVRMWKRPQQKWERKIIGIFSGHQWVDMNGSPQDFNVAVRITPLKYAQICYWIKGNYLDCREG
UniProt Q9D6J5, whole entry: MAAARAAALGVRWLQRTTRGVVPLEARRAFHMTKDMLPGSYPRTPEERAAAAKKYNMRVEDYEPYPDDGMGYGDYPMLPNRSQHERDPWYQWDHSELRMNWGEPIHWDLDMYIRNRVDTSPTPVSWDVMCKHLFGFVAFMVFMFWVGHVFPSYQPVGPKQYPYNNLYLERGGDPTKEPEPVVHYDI
UniProt Q9D174: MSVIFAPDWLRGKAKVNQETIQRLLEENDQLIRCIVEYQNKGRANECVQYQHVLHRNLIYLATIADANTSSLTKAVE
UniProt Q9D906: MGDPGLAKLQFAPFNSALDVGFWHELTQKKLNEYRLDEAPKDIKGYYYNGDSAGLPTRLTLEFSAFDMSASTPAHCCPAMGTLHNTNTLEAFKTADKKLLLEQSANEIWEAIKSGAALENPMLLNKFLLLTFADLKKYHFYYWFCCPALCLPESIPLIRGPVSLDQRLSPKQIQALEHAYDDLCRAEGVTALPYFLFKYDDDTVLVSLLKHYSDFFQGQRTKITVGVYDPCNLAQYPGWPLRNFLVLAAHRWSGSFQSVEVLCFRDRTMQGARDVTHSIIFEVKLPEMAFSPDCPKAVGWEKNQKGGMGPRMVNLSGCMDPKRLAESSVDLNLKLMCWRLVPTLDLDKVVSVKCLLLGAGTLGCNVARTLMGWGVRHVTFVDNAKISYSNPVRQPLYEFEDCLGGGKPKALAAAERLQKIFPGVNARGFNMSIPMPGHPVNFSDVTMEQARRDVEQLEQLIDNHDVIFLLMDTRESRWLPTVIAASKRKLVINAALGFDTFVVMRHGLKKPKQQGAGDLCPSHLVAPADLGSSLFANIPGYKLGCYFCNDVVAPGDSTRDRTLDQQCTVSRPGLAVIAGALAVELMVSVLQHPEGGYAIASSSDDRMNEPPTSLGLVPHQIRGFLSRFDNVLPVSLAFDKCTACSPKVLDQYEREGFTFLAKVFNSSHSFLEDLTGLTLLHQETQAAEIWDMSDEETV
UniProt Q9D4H8: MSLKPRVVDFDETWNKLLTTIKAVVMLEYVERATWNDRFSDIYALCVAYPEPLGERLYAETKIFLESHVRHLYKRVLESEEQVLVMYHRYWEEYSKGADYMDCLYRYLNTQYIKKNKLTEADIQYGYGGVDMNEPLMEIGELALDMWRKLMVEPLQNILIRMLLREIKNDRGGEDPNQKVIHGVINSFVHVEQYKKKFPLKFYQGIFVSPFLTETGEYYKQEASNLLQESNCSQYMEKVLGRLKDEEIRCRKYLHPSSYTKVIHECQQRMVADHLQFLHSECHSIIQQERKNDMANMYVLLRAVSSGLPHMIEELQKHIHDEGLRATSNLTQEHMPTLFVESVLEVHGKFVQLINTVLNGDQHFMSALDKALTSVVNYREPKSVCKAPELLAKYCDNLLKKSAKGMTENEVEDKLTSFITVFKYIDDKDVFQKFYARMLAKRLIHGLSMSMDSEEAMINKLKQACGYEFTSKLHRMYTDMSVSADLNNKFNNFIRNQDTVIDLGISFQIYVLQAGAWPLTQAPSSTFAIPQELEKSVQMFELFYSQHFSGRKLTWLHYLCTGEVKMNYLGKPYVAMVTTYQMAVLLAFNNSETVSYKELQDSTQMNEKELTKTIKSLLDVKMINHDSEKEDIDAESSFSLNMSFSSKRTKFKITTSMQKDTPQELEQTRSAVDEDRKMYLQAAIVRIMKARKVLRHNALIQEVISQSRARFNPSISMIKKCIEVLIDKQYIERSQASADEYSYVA
UniProt Q9DAI2: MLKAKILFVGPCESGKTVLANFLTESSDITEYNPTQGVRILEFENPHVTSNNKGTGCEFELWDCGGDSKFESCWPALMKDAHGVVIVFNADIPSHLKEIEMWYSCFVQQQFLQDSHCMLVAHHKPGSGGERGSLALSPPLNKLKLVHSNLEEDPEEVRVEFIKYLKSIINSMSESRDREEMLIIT
UniProt Q9D816: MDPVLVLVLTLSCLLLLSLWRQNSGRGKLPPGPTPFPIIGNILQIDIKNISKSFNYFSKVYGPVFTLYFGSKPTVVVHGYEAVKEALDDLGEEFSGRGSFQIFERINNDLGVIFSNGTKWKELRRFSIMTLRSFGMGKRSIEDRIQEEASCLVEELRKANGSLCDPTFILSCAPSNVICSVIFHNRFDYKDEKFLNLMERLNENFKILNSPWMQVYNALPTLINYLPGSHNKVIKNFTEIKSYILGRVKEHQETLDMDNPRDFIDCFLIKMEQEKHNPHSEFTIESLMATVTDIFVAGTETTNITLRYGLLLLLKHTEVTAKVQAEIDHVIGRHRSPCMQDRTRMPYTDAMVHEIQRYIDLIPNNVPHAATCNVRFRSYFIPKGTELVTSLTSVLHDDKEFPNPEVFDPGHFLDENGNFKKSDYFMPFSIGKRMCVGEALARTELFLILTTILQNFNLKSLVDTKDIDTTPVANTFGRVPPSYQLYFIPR
UniProt Q9D7N6: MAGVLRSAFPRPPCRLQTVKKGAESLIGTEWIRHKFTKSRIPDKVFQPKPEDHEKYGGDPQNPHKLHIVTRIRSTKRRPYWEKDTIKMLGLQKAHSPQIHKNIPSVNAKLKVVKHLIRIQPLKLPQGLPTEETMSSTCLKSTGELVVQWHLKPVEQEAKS
UniProt Q9D9R0: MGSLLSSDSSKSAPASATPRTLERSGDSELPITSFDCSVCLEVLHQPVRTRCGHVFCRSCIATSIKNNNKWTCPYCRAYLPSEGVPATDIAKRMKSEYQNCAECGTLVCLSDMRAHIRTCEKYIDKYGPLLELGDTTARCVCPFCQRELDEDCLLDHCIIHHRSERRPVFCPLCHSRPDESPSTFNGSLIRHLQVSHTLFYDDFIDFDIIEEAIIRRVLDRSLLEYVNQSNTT
UniProt Q9D967: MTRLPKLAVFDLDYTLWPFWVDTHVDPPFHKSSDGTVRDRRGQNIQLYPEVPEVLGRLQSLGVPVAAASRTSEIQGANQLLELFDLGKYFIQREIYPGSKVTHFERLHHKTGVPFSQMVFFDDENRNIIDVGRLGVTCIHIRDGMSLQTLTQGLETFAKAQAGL
UniProt Q9D882: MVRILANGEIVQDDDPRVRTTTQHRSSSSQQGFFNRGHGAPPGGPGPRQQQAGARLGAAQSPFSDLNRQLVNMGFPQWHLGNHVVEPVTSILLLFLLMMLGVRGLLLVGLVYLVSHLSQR
UniProt Q9D5V6: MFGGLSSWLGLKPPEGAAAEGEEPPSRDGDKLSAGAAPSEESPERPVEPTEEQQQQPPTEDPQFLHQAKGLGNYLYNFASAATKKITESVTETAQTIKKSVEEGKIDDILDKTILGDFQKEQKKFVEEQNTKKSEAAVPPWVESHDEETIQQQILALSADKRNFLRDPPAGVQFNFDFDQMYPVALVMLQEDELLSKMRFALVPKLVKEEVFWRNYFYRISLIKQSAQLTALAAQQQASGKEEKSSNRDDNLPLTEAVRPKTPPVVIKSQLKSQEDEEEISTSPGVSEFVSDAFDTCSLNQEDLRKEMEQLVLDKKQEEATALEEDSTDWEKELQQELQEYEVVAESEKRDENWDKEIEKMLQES

This is one part of the list. Most entries show no effect beyond the scatter of the controls.

Compound in this experiment: CN[C@@H]1C[C@H]2O[C@@](C)([C@@H]1OC)n1c3ccccc3c3c4c(c5c6ccccc6n2c5c31)C(=O)NC4 [staurosporine]
As to the kind of experiment: log2 fold change of tryptic peptide abundance, ligand vs vehicle (limited proteolysis) (log2 ratio); higher = more trypsin-susceptible (destabilized). Particulars: ligand concentration: 20 uM; sample: mouse liver crude lysate; replicate design: treated separately.

As to “UniProt Q9D7F7 (peptide sequence: AALQALKR, peptide start residue: 64)”, the log2 fold change is -0.0335.

Consider “UniProt Q9D5R2 (peptide sequence: AADLSKPIDKR, peptide start residue: 84)”, for which the log2 fold change is -0.219. “UniProt Q9D5R3 (peptide sequence: LQVLTPQKLELVK, peptide start residue: 98)”: the log2 fold change is -0.136.

As for “UniProt Q9D358 (peptide sequence: AFLEKTY, peptide start residue: 152)”, the log2 fold change came to 0.27.

For “UniProt Q9D708 (peptide sequence: KAADKLIQNLDANHDGR, peptide start residue: 57)”, the log2 fold change stood at 0.198. With “UniProt Q9D4H1 (peptide sequence: GGLSTFFEAQDALSAIHQK, peptide start residue: 207)”, the log2 fold change turned out to be 0.677. Turning to “UniProt Q9D1I2 (peptide sequence: ALYIHAQPLHSHLPSR, peptide start residue: 83)”, the log2 fold change came out at 0.943. With “UniProt Q9D4K7 (peptide sequence: GGGTLEK, peptide start residue: 80)”, the log2 fold change was found to be 0.0493.

Regarding “UniProt Q9D7I5 (peptide sequence: AEVVGKPSPEFFK, peptide start residue: 184)”, the log2 fold change was -0.38. The same measure for “UniProt Q9D2U5 (peptide sequence: QQLEALLNK, peptide start residue: 43)”: -0.192; for “UniProt Q9D6X6 (peptide sequence: AKLEVSSSCGPQCHK, peptide start residue: 56)”: 0.00845; for “UniProt Q9D6J5 (peptide sequence: DMLPGSYPR, peptide start residue: 35)”: -0.154. The same measure for “UniProt Q9D174 (peptide sequence: ANECVQYQHVLHR, peptide start residue: 44)”: -0.508; for “UniProt Q9D906 (peptide sequence: WLPTVIAASKR, peptide start residue: 478)”: 0.278. Regarding “UniProt Q9D4H8 (peptide sequence: KLMVEPLQNILIR, peptide start residue: 149)”, the log2 fold change is -0.224. The same measure for “UniProt Q9D9I4 (peptide sequence: TAASTFKDFELASTQQRPDMVLR, peptide start residue: 319)”: -0.1. As for “UniProt Q9D7G4 (peptide sequence: LGLLEDADALWTHSHSQAQK, peptide start residue: 172)”, the log2 fold change was 0.316.

As for “UniProt Q9DAI2 (peptide sequence: GSLALSPPLNK, peptide start residue: 132)”, the log2 fold change is 0.187. For “UniProt Q9D136 (peptide sequence: IPEGSSAAER, peptide start residue: 11)”, the log2 fold change stood at 0.114. Consider “UniProt Q9D816 (peptide sequence: FSIMTLR, peptide start residue: 126)”, for which the log2 fold change was -0.241.

Consider “UniProt Q9D7N6 (peptide sequence: VFQPKPEDHEK, peptide start residue: 45)”, for which the log2 fold change amounted to 0.259.

In the case of “UniProt Q9D3S3 (peptide sequence: EALVSQMR, peptide start residue: 620)”, the log2 fold change was -0.181. In the case of “UniProt Q9D9R0 (peptide sequence: AYLPSEGVPATDIAKR, peptide start residue: 78)”, the log2 fold change is -0.214. The same measure for “UniProt Q9D6J3 (peptide sequence: AAARPNPTAILNEVPQTKR, peptide start residue: 224)”: -0.185; for “UniProt Q9D2Q2 (peptide sequence: NSHQVFEVLNGR, peptide start residue: 631)”: 0.287; for “UniProt Q9D967 (peptide sequence: LQSLGVPVAAASR, peptide start residue: 58)”: -0.195.

On to “UniProt Q9D882 (peptide sequence: GHGAPPGGPGPR, peptide start residue: 37)”, for which the log2 fold change is -0.0691. On to “UniProt Q9D2I5 (peptide sequence: AFLLQALR, peptide start residue: 335)”, for which the log2 fold change was -0.043. Take “UniProt Q9D7Z3 (peptide sequence: HFIHSCLYGSDSKR, peptide start residue: 187)”: the log2 fold change was -0.245.

On to “UniProt Q9D924 (peptide sequence: AALTLTPSAVNK, peptide start residue: 23)”, for which the log2 fold change came to 0.119. On to “UniProt Q9D5V6 (peptide sequence: KEMEQLVLDKK, peptide start residue: 306)”, for which the log2 fold change was -0.176.
